# These are yes or no findings as the source states them, for the method shown. For some of these results: In cells and extracts the contact can be indirect. Some binding calls cover weakened binding; strength is not graded here.
# Amino acid sequences for entries named in this document (tags omitted). A change or cut given only in a name is not applied to a line headed by its entry. Residues count along the entry.
# UniProt P06239: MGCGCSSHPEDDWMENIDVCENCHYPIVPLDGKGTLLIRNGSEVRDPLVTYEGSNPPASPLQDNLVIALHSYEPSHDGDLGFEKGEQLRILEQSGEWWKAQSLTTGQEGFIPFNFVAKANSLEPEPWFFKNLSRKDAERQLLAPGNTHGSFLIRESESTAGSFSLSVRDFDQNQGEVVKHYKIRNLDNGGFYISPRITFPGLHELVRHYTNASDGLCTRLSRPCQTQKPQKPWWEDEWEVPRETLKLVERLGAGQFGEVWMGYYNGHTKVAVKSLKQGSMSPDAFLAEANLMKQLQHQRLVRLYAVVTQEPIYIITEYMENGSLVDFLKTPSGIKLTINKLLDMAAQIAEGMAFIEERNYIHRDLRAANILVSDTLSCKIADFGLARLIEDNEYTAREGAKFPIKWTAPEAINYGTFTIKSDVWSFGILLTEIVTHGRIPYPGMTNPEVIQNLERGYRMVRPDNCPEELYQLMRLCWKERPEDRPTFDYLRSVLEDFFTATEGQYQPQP
# UniProt P06332, residues 27-457: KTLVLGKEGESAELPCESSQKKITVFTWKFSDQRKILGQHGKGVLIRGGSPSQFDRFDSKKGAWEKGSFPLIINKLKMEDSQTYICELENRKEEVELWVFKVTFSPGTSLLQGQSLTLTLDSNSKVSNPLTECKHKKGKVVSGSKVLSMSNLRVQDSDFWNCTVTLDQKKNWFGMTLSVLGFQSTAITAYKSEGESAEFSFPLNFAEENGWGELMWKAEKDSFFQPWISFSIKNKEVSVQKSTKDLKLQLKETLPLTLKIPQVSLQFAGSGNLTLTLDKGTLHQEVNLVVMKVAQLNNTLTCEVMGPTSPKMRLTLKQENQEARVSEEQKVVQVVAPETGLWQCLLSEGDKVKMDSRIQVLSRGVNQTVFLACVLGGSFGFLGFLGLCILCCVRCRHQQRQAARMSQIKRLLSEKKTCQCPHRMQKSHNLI
# UniProt P06240: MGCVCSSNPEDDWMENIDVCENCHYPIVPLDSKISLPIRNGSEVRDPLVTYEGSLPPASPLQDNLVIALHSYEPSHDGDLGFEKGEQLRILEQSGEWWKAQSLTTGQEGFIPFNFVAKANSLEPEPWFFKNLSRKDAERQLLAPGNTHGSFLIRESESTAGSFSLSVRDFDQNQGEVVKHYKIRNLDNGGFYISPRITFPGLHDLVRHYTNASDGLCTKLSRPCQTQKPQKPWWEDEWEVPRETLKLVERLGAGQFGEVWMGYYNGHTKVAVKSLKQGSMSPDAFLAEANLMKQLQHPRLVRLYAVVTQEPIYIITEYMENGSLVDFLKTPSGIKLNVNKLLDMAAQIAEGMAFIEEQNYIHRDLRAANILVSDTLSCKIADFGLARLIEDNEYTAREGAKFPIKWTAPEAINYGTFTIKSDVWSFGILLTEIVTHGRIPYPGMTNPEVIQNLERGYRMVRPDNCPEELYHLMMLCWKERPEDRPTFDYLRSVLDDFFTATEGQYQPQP
# Experiments:
# [1] = molecular target: human clasp-deficient Lck (C20S, C23S) with fluorescent protein tag (HEK293T) (human) (UniProt P06239); assay: scanning fluorescence cross-correlation spectroscopy (sFCCS); live HEK293T cells on glass coverslips coexpressing mCherry2- and mEGFP-tagged proteins, one coreceptor; line scans at the basal cell surface; cross-correlation quotient q normalised to the tandem control (100%) and Lck^CS/Lck^CS (0%)
# [2] = molecular target: mouse CD4 (endogenous, thymocytes) (mouse (endogenous in C57Bl/6 thymocytes)) (UniProt P06332); assay: co-IP; flow cytometric co-IP (FC-IP): 10^7 thymocytes lysed at 4 °C for 30 min, lysate incubated with beads carrying anti-mCD4 (RM4-4) or anti-mCD8β (53-5.8), beads stained for Lck and coreceptor, occupancy = background-subtracted Lck/coreceptor fluorescence ratio; with or without 5 mM EDTA in lysis buffer or 5 mM TPEN pretreatment of cells
# [3] = molecular target: murine CD4 expressed in Jurkat T cells (mouse) (UniProt P06332); assay: co-IP; flow cytometric co-IP (FC-IP) from lysates of Jurkat T cells (endogenous CD4/Lck ablated) transduced with mCD4 and mLck or mLck^CS; 10^7 cells; with or without EDTA or TPEN
Substance,binding [3],also measured
"human clasp-deficient Lck (C20S, C23S) with fluorescent protein tag (HEK293T) (from UniProt P06239 1-509) (enzyme)",–,binding [1]: no binding
"mouse Lck (endogenous, thymocytes) (from UniProt P06240 1-509) (enzyme)",–,binding [2]: binds
murine Lck expressed in Jurkat T cells (from UniProt P06240 1-509) (enzyme),binds,–
"murine clasp-deficient Lck (C20S, C23S) expressed in Jurkat T cells (from UniProt P06240 1-509) (enzyme)",no binding,–

# Source: publication PMC9894195
